The RNAGym collection of RNA variant scans (doi:10.1126/science.aae0568)
Variants at the floor of the assay are shown more often than the library holds them.

B1: tRNA (parent)
chain: GUUCCGUUGGCGUAAUGGUAACGCGUCUCCCUCCUAAGGAGAAGACUGCGGGUUCGAGUCCCGUACGGAACG

Variants of: B1
Assay: yeast fitness relative to wild type (ratio to wild type); higher = fitter; tRNA-Arg(CCU), competitive growth, 37 C, YPD
Outline: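 Variants of the tRNA-Arg(CCU) gene, chemically synthesised with a 3% per-site mutation rate at 69 sites, were placed at the native genomic locus in Saccharomyces cerevisiae. The pooled strains were competed in YPD at 37°C for 24 hours in six parallel replicates. Gene amplicons from the start population and from each end population were read by 100-nucleotide paired-end sequencing. Darwinian fitness relative to wild type came from changes in genotype frequencies; genotypes needed ≥ 100 starting reads, and estimates < 0.5 were set to 0.5.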

Row | Variant | yeast fitness
1 | A15U U16C G18C C29A | ≤ 0.5
2 | A15U U16C G23C | ≤ 0.5
3 | A15U U28A U59A C66A | ≤ 0.5
4 | A15U U28A U64G | ≤ 0.5
5 | A15U U32C C33G C62G | ≤ 0.5
6 | A15U U35C G48U C55G | ≤ 0.5
7 | A15U U53C | 0.71
8 | U16A A21U C27U A40U A65U | ≤ 0.5
9 | U16A A37U C62G | ≤ 0.5
10 | U16A A57G C60G G67A | ≤ 0.5
11 | U16A C22G C61G C66U A69U | ≤ 0.5
12 | U16A C22U U28C U32C C55G | ≤ 0.5
13 | U16A C24A C30G C34U C55A G67A | ≤ 0.5
14 | U16A C24U C34A A65G G67A | ≤ 0.5
15 | U16A C27G C49G U64A | ≤ 0.5
16 | U16A C30U A42U U64C | ≤ 0.5
17 | U16A C49U C60G G67A | ≤ 0.5
18 | U16A G17A C22G C55G G63C | ≤ 0.5
19 | U16A G17A C34U C66U A70U | ≤ 0.5
20 | U16A G39A A42G C55A C62A | ≤ 0.5
21 | U16A U26A C30G U59C | ≤ 0.5
22 | U16C A21C A37G A42C C55A | ≤ 0.5
23 | U16C A21C C49A G58A C66U G68A | ≤ 0.5
24 | U16C A21U A43U G67A | ≤ 0.5

Row | Variant | yeast fitness
25 | U16C A40C A57G C61U | ≤ 0.5
26 | U16C A43G U59C | 0.609
27 | U16C C22U A37U C49A C62U | 0.6
28 | U16C C29U C49U C55G | ≤ 0.5
29 | U16C C31U C33A C34G U35A C66U | ≤ 0.5
30 | U16C C34G A65U G67U | ≤ 0.5
31 | U16C C55G G56C | ≤ 0.5
32 | U16C G18C A37G U54G U64G | ≤ 0.5
33 | U16C U26A G38C G56A | ≤ 0.5
34 | U16C U28G C60U U64C | ≤ 0.5
35 | U16C U32A A45C G48A G68A | ≤ 0.5
36 | U16C U32C | 0.918
37 | U16C U32G C34G U53A G63C | ≤ 0.5
38 | U16G A21G C31U | 0.985
39 | U16G C22U A37U G50C G67A | ≤ 0.5
40 | U16G G18C A21U A45U C49U U64A | ≤ 0.5
41 | U16G G23C U35C | 0.655
42 | U16G G51A C61G | ≤ 0.5
43 | U16G G56C A65U | ≤ 0.5
44 | U16G G67U | 0.774
45 | U16G U19G C29G G50C C66U | ≤ 0.5
46 | G17A A20C C24U A43C G52A | ≤ 0.5
47 | G17A A21C | 0.67
48 | G17A A21C A36C G56A | ≤ 0.5

Row | Variant | yeast fitness
49 | G17A A21G U28G C62G | ≤ 0.5
50 | G17A A36C A70C | ≤ 0.5
51 | G17A A36U G68A | ≤ 0.5
52 | G17A A37U C60A | ≤ 0.5
53 | G17A A65U | 0.805
54 | G17A C22A A37C C66U | ≤ 0.5
55 | G17A C22U | 0.737
56 | G17A C24G C33U A37U | ≤ 0.5
57 | G17A C27U A36C C55A | ≤ 0.5
58 | G17A C30G A69C | ≤ 0.5
59 | G17A C49G G56A C60G | ≤ 0.5
60 | G17A G18A C61A | ≤ 0.5
61 | G17A G48A U54C A69C | ≤ 0.5
62 | G17C A21G C27U C33G A42U A70C | ≤ 0.5
63 | G17C A21G C33A C49U C55G | ≤ 0.5
64 | G17C A21G U26G | ≤ 0.5
65 | G17C A37U | ≤ 0.5
66 | G17C A42G A65U | ≤ 0.5
67 | G17C C24A A45C A65G | ≤ 0.5
68 | G17C C24G U28A C30U C62G C66G | ≤ 0.5
69 | G17C C29U | 0.545
70 | G17C C30U A36G | ≤ 0.5
71 | G17C G18A C31A C66A | ≤ 0.5
72 | G17C G18C C66U | ≤ 0.5

Row | Variant | yeast fitness
73 | G17C G25C C30U A65C | ≤ 0.5
74 | G17C G56C | 0.633
75 | G17U A21G C55U | ≤ 0.5
76 | G18A A20G | 0.613
77 | G18A A20U G56A | ≤ 0.5
78 | G18A A21G G39A C49A | ≤ 0.5
79 | G18A A21U U26C G48A C61A | ≤ 0.5
80 | G18A A21U U32A C62G A65G | ≤ 0.5
81 | G18A A37C G48A A69C | ≤ 0.5
82 | G18A A37C G67U | ≤ 0.5
83 | G18A C27U C31A C46A G52A G63C | ≤ 0.5
84 | G18A C27U U32A G48A G51A | ≤ 0.5
85 | G18A C34U G48A A65C | ≤ 0.5
86 | G18A C55A G63C | ≤ 0.5
87 | G18A C66A G68C | ≤ 0.5
88 | G18A G41C C61U | ≤ 0.5
89 | G18A G68C A69U | ≤ 0.5
90 | G18A U26C | 0.648
91 | G18C A20G G23A G25C A37G A43C C55G G68A | ≤ 0.5
92 | G18C A37G A43U | ≤ 0.5
93 | G18C A37U A40U U64C G67A | ≤ 0.5
94 | G18C A40G | 0.64
95 | G18C A43C C55U G58A C61U | ≤ 0.5
96 | G18C A45C U47C | ≤ 0.5

Row | Variant | yeast fitness
97 | G18C C22G A65G A70U | ≤ 0.5
98 | G18C C22U C34G | 0.688
99 | G18C C22U C55U C66U | ≤ 0.5
100 | G18C C29U C34U A37G G58C | ≤ 0.5
101 | G18C U26A A45G C62A | ≤ 0.5
102 | G18C U47G G67A A69U | ≤ 0.5
103 | G18C U54A A57C | ≤ 0.5
104 | U19A A36G A40G C55G A65C | ≤ 0.5
105 | U19A A37U G41C C60A | ≤ 0.5
106 | U19A A37U G41C G50A | ≤ 0.5
107 | U19A A42G U47C | ≤ 0.5
108 | U19A A42U A45G U64A | ≤ 0.5
109 | U19A A57C U64A | ≤ 0.5
110 | U19A C30A C46U G52C | ≤ 0.5
111 | U19A C31A A37G | ≤ 0.5
112 | U19A C31A A37G A65G | ≤ 0.5
113 | U19A C31A C49U | ≤ 0.5
114 | U19A C62U | 0.931
115 | U19A G23A C62G | ≤ 0.5
116 | U19A G23C C30G U47A A65G | ≤ 0.5
117 | U19A U32C C49A C66A | ≤ 0.5
118 | U19C A20C C31G G68C | ≤ 0.5
119 | U19C A20U C55U C61G | ≤ 0.5
120 | U19C A36G G44A A70U | ≤ 0.5

Row | Variant | yeast fitness
121 | U19C A42U C46U C55G G63C | ≤ 0.5
122 | U19C C22U G25C C27G A40C | 0.587
123 | U19C G38A C55U C61G | ≤ 0.5
124 | U19C G38C C55U | ≤ 0.5
125 | U19C G50A U53A C61U | ≤ 0.5
126 | U19C U35C C49U C61G | ≤ 0.5
127 | U19G C22G U32G A57C C62U | ≤ 0.5
128 | U19G C22U C31U A40U G50U G67A | ≤ 0.5
129 | U19G C49G C55G | ≤ 0.5
130 | U19G G44A C46G | 0.946
131 | A20C A21U C31U A70G | ≤ 0.5
132 | A20C A42G | 0.842
133 | A20C C22U C61G | ≤ 0.5
134 | A20C C29G C61U | ≤ 0.5
135 | A20C C30A C34G A43U | ≤ 0.5
136 | A20C C30G A45U G50C | ≤ 0.5
137 | A20C C30U A37G | ≤ 0.5
138 | A20C G23C C34A | ≤ 0.5
139 | A20C G41A G58U A69U | ≤ 0.5
140 | A20C U26C C60A A65U | ≤ 0.5
141 | A20C U28C G41A A57U C66G | ≤ 0.5
142 | A20G A21G C29G A43C C61G | ≤ 0.5
143 | A20G A21U C27U A40G A43G C46U C49U C61G | ≤ 0.5
144 | A20G A36U C55G | ≤ 0.5

Row | Variant | yeast fitness
145 | A20G C22U C29A G68A A69C | ≤ 0.5
146 | A20G C22U G51A A57G | ≤ 0.5
147 | A20G C24G G67C | ≤ 0.5
148 | A20G C27U C49U A57G | ≤ 0.5
149 | A20G C29G A40G | ≤ 0.5
150 | A20G C29U A43C U59A | ≤ 0.5
151 | A20G C29U A57C G67A | ≤ 0.5
152 | A20G C30A G48A U64C | ≤ 0.5
153 | A20G C31G C60G | ≤ 0.5
154 | A20G C31G C60U C62U | ≤ 0.5
155 | A20G C33U G50C A57C | ≤ 0.5
156 | A20G C34G A37C C66U | ≤ 0.5
157 | A20G C34G A43U C61G | ≤ 0.5
158 | A20G C34G A43U C66U | 0.546
159 | A20G C46G G56C | ≤ 0.5
160 | A20G C46U C49A C62U | ≤ 0.5
161 | A20G C49U C60A A70C | ≤ 0.5
162 | A20G C55G G63A | ≤ 0.5
163 | A20G G23C | 0.727
164 | A20G G25C | 0.985
165 | A20G U26C | 0.984
166 | A20G U26G A45C C49G | ≤ 0.5
167 | A20G U28C U32C G68C | ≤ 0.5
